{"source": "PubChem BioAssay AID504784 (Drosophila RNAi Screening Center, 2011)", "screen": "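Search for regulators of lipid droplet storage in oleate-fed fly cells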 (primary screen)", "cells": "Drosophila Kc167 embryonic cells", "reagent": "long dsRNA against Drosophila genes, about 250 ng dsRNA per well", "timing": "4 days", "challenge": "cells fed 400 µM oleic acid bound to BSA", "read-out": "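Cells imaged and segmented; ratio of lipid droplet area to nuclear area, log-transformed, then normalised as a B-score over the screen; higher means more stored lipid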", "scale": "droplet/nuclear area B-score: higher = more stored lipid (overstorage)", "note": "In all, the deposit lists about 17,000 reagents; this is an unselected part of those with a known target gene and a result. 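Each column is one replicate's B-score; the combined score over replicates was not deposited, so single values may mislead.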 Not all columns of the deposit are shown."}
{"target gene": "CG15712 (GeneID 36843)", "dsRNA": "DRSC06583", "droplet/nuclear area B-score, replicate 1": -0.0307}
{"target gene": "Apc (GeneID 44642)", "dsRNA": "DRSC14114", "droplet/nuclear area B-score, replicate 1": -0.26}
{"target gene": "CG13855 (GeneID 42629)", "dsRNA": "DRSC14705", "droplet/nuclear area B-score, replicate 1": -0.458}
{"target gene": "Ccp84Aa (GeneID 40825)", "dsRNA": "DRSC12586", "droplet/nuclear area B-score, replicate 1": -1.11}
{"target gene": "iav (GeneID 31621)", "dsRNA": "DRSC18363", "droplet/nuclear area B-score, replicate 1": -1.22}
{"target gene": "CCHa2-R (GeneID 35535)", "dsRNA": "DRSC04870", "droplet/nuclear area B-score, replicate 1": -2.2}
{"target gene": "CCHa2-R (GeneID 35535)", "dsRNA": "DRSC04871", "droplet/nuclear area B-score, replicate 1": -3.02}
{"target gene": "AgmNAT (GeneID 31512)", "dsRNA": "DRSC18072", "droplet/nuclear area B-score, replicate 1": -0.291}

The list goes on, starting with the last 2 of the part before.
{"target gene": "CCHa2-R (GeneID 35535)", "dsRNA": "DRSC04871", "droplet/nuclear area B-score, replicate 1": -3.02}
{"target gene": "AgmNAT (GeneID 31512)", "dsRNA": "DRSC18072", "droplet/nuclear area B-score, replicate 1": -0.291}
{"target gene": "Ndg (GeneID 36089)", "dsRNA": "DRSC06223", "droplet/nuclear area B-score, replicate 1": 0.223}
{"target gene": "Hers (GeneID 33000)", "dsRNA": "DRSC19429", "droplet/nuclear area B-score, replicate 1": -0.294}
{"target gene": "Hers (GeneID 33000)", "dsRNA": "DRSC19676", "droplet/nuclear area B-score, replicate 1": -1.14}
{"target gene": "CG18662 (GeneID 50437)", "dsRNA": "DRSC02691", "droplet/nuclear area B-score, replicate 1": 0.139}
{"target gene": "CG13713 (GeneID 59233)", "dsRNA": "DRSC08322", "droplet/nuclear area B-score, replicate 1": -3.11}
{"target gene": "ppk22 (GeneID 318593)", "dsRNA": "DRSC22093", "droplet/nuclear area B-score, replicate 1": -0.621}
{"target gene": "beag (GeneID 41091)", "dsRNA": "DRSC15296", "droplet/nuclear area B-score, replicate 1": 0.674}
{"target gene": "CG32695 (GeneID 31918)", "dsRNA": "DRSC17975", "droplet/nuclear area B-score, replicate 1": 0.155}
